This is one part of the list. The main result of the screen is listed elsewhere. These columns were measured beside it and carry no call. Most of these compounds were active or inconclusive in the main read-out, so they are no random draw. Words in brackets tell the shape of the fitted curve; partial curves, single points and poor fits give uncertain potencies.
Experiment: qHTS Assay to Find Inhibitors of Chronic Active B-Cell Receptor Signaling
Conditions: ABC-DLBCL IkBa-CBG/CBR reporter, luminescence ratio (green luciferase fused to IkBa over red control in TMD8 lymphoma cells), 4 h
Outline: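 Cell line TMD8 (human ABC DLBCL), stably expressing tet-inducible CBG68-IkBa fusion and CBR; IMDM/0.5% FBS; cpd up to 46 uM; dox induction, 4 h, 37C/5% CO2; dual luminescence; green/red ratio; MG132 control.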

[1] = measured here: CBR red luminescence, cell number
[2] = measured here: IkBa-CBG green luminescence

Row | SMILES | AC50 [1] | AC50 [2]
1 | COc1ccc(OC)c(-n2c(N)c(C(=O)NCC3CCCO3)c3nc4ccccc4nc32)c1 (stereo not drawn) | 29.1 µM [falling, single point] | 
2 | O=C(Nc1cccnc1)c1cc(-c2ccc(Cl)cc2)on1 | 4.47 µM [falling, partial curve] | 
3 | Cn1cccc1C(=O)C(=O)Nc1ccc(F)c(F)c1 | 15.8 µM [falling, partial curve] | 
4 | O=C(Cn1cccc1C(=O)c1ccccc1)NCc1ccccc1Cl | 1.58 µM [falling, partial curve, poor fit] | 
5 | Cc1ccc(C2(C)NC(=O)N(CC(=O)NC(=O)NC3CCCC3)C2=O)cc1 (stereo not drawn) | 6.51 µM [rising, partial curve, poor fit] | 
6 | COc1ccccc1N(CC(=O)NC1CCCC1)C(=O)CCC(=O)Nc1ccccn1 | 0.158 µM [falling, partial curve, poor fit] | 
7 | COCCCN1C(=O)c2ccc(C(=O)Nc3ccc(C)cc3C)cc2C1=O | 14.1 µM [falling, single point] | 
8 | O=C(CCOc1ccccc1)Nc1nnc(-c2ccc3c(c2)OCCO3)o1 | 35.5 µM [falling, single point] | 
9 | CCOC(=O)CSC1=C(C#N)C(=O)NC(c2ccc(OC)cc2)S1 (stereo not drawn) | 0.517 µM [falling, partial curve, poor fit] | 
10 | C=CCn1c(=NC(=O)c2cccs2)sc2cccc(OC)c21 | 1.41 µM [falling, full curve, poor fit] | 
11 | COc1ccc(-c2ccc(-c3noc(C(C)C)n3)c(OC)n2)cc1 | 5.62 µM [rising, partial curve, poor fit] | 
12 | Cc1cc(C)n(-c2cc(N3CCN(C(=O)c4cccc(Br)c4)CC3)ccc2[N+](=O)[O-])n1 | 20 µM [falling, partial curve, poor fit] | 
13 | COC(=O)c1cccc(NC(=O)c2cc3ccccc3o2)c1 | 15.8 µM [falling, partial curve, poor fit] | 
14 | Cc1cc(NC(=O)CSCC(=O)OCc2nnc(-c3ccccc3)o2)no1 | 0.316 µM [rising, full curve, poor fit] | 
15 | CC(=O)NC(=S)Nc1sc2c(c1C#N)CCCCC2 | 1.84 µM [rising, full curve, poor fit] | 
16 | COCc1c(C(=O)N2CCc3ccccc32)oc2ccccc12 | 12.6 µM [rising, partial curve, poor fit] | 
17 | Cc1cccc(NC(=O)c2ccc(OCc3c(C)noc3C)cc2)c1C | 25.9 µM [rising, single point] | 
18 | O=C(NC(=S)Nc1cc(Cl)ccc1O)c1cccc(Br)c1 | 12.6 µM [falling, partial curve] | 
19 | COC(=O)CCCNC(=O)c1ccc(OS(=O)(=O)c2cc([N+](=O)[O-])ccc2C)cc1 | 7.31 µM [rising, partial curve, poor fit] | 
20 | COc1ccc2nc(SCC(=O)NCc3ccc(F)cc3)[nH]c2c1 | 12.6 µM [falling, single point] | 
21 | C[C@]12C=CC(=O)C=C1CC[C@@H]1[C@@H]2C(=O)C[C@@]2(C)[C@H]1CC[C@]2(O)C(=O)CO | 14.6 µM [rising, partial curve] | 

Row | SMILES | AC50 [1] | AC50 [2]
22 | CC(=O)c1sc(NC(=O)c2ccc(Br)o2)nc1C | 1.41 µM [falling, full curve] | 
23 | CCc1cccc(C)c1NC(=O)c1cc(S(=O)(=O)N2CCC3(CC2)OCCO3)ccc1F | 6.31 µM [rising, single point] | 
24 | NS(=O)(=O)c1ccc(NC(=O)/C=C/c2ccccc2Cl)cc1 | 5.62 µM [rising, single point] | 
25 | O=C1CCN(Cc2ccc(Br)cc2)CCN1[C@H](CO)c1ccccc1 | 35.5 µM [falling, single point] | 
26 | Cc1cccc(C(=O)NNC(=O)c2cccc(C)c2)c1 | 18.4 µM [falling, single point] | 
27 | CC1CCc2c(sc(NC(=O)c3cccs3)c2C(=O)O)C1 (stereo not drawn) | 1.12 µM [falling, full curve] | 
28 | Nc1nncn1C(=O)c1ccccc1Cl | 9.2 µM [falling, partial curve, poor fit] | 
29 | O=C(CCC1CCCC1)NCc1cccs1 | 1.41 µM [rising, partial curve, poor fit] | 
30 | COc1ccc(-n2c(NC(=O)c3ccc(Br)o3)c(C#N)c3nc4ccccc4nc32)cc1 | 0.501 µM [rising, partial curve, poor fit] | 
31 | CCCCNc1c(-c2ccc(OC)c(Sc3ccc(OC)cc3)c2)nc2ccccn12 | 20.6 µM [falling, partial curve] | 25.9 µM [rising, partial curve, poor fit]
32 | CC(=O)NCCc1nc2cc(NC(=O)c3ccc(Cl)cc3)ccc2n1C | 11.2 µM [falling, partial curve, poor fit] | 
33 | Fc1ccc(NC(=S)NCCN2CCOCC2)c(F)c1F | 35.5 µM [falling, single point] | 
34 | CCn1c2ccccc2c2cc(NC(=O)CCCN3C(=O)CCC3=O)ccc21 | 1.16 µM [falling, full curve, poor fit] | 
35 | CCCc1[nH]nc2c1C(c1ccc(OC)cc1OC)C(C#N)=C(N)O2 (stereo not drawn) | 23.1 µM [falling, single point] | 
36 | COc1cc(=O)[nH]c(SCc2c(F)c(F)c(F)c(F)c2F)n1 | 23.1 µM [rising, partial curve, poor fit] | 
37 | Cc1cccc(COCC(Cc2ccccc2)N2CCN(C(=O)c3cc(Cl)cc(Cl)c3)CCC2=O)c1 (stereo not drawn) | 32.6 µM [falling, single point] | 
38 | COCCCNCCCCOc1c(Cl)cc(C)cc1Br | 2.51 µM [falling, full curve, poor fit] | 
39 | CN(Cc1ccco1)c1ncnc2ccc(-c3cccnc3)cc12 | 32.6 µM [rising, single point] | 
40 | CCOc1ccc(-c2nc(C#N)c(NC3CC3)o2)cc1 | 18.4 µM [rising, partial curve, poor fit] | 
41 | O=C(N/N=C(\c1ccccc1)c1ccccn1)c1ccccc1Cl | 28.2 µM [rising, single point] | 25.1 µM [falling, single point]

One compound at a time, from the list above.
CCn1c2ccccc2c2cc(NC(=O)CCCN3C(=O)CCC3=O)ccc21 as listed: AC50 [1]: 1.16 µM [falling, full curve, poor fit]
CCOC(=O)CSC1=C(C#N)C(=O)NC(c2ccc(OC)cc2)S1 (stereo not drawn) as listed: AC50 [1]: 0.517 µM [falling, partial curve, poor fit]
CC(=O)NC(=S)Nc1sc2c(c1C#N)CCCCC2 as listed: AC50 [1]: 1.84 µM [rising, full curve, poor fit]

From PubChem BioAssay AID493014 (National Center for Advancing Translational Sciences (NCATS), 2011)
